Assay [1] concerns the target T1, Pseudomonas syringae bacteriophytochrome photoreceptor BphP1 (PsBphP1), full length, assembled with biliverdin (Pseudomonas syringae) (UniProt Q885D3).
T1 sequence (chain, biliverdin (BV) covalently linked via a thioether linkage to Cys16): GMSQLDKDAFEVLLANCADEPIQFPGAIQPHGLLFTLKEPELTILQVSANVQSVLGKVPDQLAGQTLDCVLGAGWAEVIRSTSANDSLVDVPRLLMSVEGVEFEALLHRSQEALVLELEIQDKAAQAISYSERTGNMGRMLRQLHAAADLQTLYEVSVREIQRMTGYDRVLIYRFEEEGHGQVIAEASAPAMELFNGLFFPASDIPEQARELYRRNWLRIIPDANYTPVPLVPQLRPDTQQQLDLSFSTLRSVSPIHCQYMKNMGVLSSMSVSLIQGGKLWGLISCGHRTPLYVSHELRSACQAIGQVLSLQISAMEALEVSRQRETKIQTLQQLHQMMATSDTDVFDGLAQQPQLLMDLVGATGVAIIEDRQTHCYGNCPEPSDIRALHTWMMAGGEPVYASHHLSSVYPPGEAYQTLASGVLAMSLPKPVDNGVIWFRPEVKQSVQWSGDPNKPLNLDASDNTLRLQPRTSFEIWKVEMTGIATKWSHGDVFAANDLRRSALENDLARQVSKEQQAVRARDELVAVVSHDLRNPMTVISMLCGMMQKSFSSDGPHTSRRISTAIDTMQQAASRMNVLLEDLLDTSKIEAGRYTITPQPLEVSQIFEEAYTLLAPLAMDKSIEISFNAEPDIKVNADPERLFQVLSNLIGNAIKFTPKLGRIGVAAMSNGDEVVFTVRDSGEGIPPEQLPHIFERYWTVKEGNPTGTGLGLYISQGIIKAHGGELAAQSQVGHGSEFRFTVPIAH
Description: SEC; PsBphP1 (3 mg mL^-1) as Pr or Pfr mixed with PsAlgB (3 mg mL^-1) and 1.5 mM ATP, incubated 10 min; running buffer with 0.15 mM ATP, 5 mM MgCl2, 0.2 mM Na2EDTA, 175 mM KSCN, pH 7.5, 22 °C; both purified. Background: Size exclusion chromatography separates by hydrodynamic size, large species first.

In assay [2] the target is T1, Pseudomonas syringae bacteriophytochrome photoreceptor BphP1 (PsBphP1), full length, assembled with biliverdin (Pseudomonas syringae). As to the kind of experiment: SEC; PsBphP1 (3 mg mL^-1) as Pr or Pfr mixed with the response regulator (3 mg mL^-1), incubated 10 min, without ATP; Superdex 200 Increase, 22 °C, 175 mM KSCN buffer pH 7.5 with 5 mM MgCl2 and 0.2 mM Na2EDTA; both purified.

Results are given in words; binding and its absence hold for the method and conditions named.

B1: Pseudomonas syringae response regulator AlgB (PsAlgB), full length (protein, UniProt Q88AQ2 1-448)
chain: GMEAATENQGRILLVDDESAILRTFRYCLEDEGYSVATANSAAQADTLMQRQVFDLCFLDLRLGEDNGLDVLAQMRIQAPWMRVVIVTAHSAVDTAVDAIQAGAADYLVKPCSPDQLRLATAKQLEVRQLSARLEALEGEVRKPKDGLDSHSPSMMAILETARQVAVTDANILILGESGTGKGELARAIHGWSKRAKKSCVTINCPSLTAELMESELFGHSRGAFTGASESTLGRVNQADGGTLFLDEIGDFPLTLQPKLLRFIQDKEYERVGDPVTRRADVRILAATNLNLEDMVRSGRFREDLLYRLNVITLHLPALRERSEDILTLADRFLARFVKEYARPARGFSEEARAALLNYRWPGNIRELRNVIERASIICPQERVEVSHLGMAEQPANNAPRVGAALSLDELEKAHIGAVLATSETLDQAAKTLGIDASTLYRKRKQYNL
Consider B1, for which the binding result in assay [1] and in assay [2] was “no binding (tested: 3 mg mL^-1 each)” each time.

The values are drawn from publication PMC11316798, “Signaling by a bacterial phytochrome histidine kinase involves a conformational cascade reorganizing the dimeric photoreceptor” (Nature Communications, 2024).
